Paper PMC7719708
No constants are given. Whether binding was seen depends on the method and setting. In cells and extracts the contact can be indirect. Some results given as binding are weak or reduced against the parent protein; the word gives no strength.

Protein sequences, listed by entry. Tags and fused reporters are not part of them. Lines headed by an entry give the natural chain unless they say otherwise; changes in a name come on top.
UniProt Q8CI15: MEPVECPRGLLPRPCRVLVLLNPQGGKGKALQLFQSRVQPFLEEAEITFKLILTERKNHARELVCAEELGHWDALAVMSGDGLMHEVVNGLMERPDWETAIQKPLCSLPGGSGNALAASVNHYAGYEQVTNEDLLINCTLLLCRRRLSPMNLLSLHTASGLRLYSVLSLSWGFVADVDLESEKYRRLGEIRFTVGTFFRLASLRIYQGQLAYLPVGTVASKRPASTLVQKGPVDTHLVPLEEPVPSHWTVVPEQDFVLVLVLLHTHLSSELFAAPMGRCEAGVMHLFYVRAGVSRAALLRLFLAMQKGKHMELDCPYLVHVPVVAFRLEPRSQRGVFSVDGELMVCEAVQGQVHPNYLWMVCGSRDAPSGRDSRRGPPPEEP
UniProt Q6PHZ2: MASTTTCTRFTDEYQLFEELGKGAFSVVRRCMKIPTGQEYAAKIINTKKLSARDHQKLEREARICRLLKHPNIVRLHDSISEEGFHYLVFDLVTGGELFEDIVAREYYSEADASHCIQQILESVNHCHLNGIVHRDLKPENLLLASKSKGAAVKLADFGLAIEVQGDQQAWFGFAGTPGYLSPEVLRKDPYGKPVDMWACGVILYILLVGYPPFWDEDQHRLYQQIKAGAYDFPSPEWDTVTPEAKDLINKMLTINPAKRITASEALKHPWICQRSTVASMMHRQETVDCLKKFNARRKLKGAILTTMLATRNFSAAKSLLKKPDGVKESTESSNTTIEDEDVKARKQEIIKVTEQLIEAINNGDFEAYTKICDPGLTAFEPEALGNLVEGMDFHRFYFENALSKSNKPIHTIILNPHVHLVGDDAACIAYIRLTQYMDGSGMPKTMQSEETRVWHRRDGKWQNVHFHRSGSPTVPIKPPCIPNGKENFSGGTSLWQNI

Target: Sphingosine kinase 1 (SphK1), endogenous in RAW264.7 cells (mouse (endogenous in RAW264.7)) (UniProt Q8CI15)
Experiment: co-IP; lysates of LPS-stimulated (1 μg/ml, 16 h) RAW264.7 cells in RIPA buffer, precleared; primary antibody overnight at 4 °C, protein A/G magnetic beads; immunoblotting

- binding: binds
Substance: Calcium/calmodulin protein kinase II-δ (CaMKII-δ), endogenous in RAW264.7 cells (from UniProt Q6PHZ2 1-499) (enzyme)
